In doi:10.1101/808899:
Read-outs that look alike come from different tables or passages of the source. Results are given in words; binding and its absence hold for the method and conditions named. Binding calls can cover weak binding; strength is not graded here.

How the values were obtained:
Assay in all cases: cryo-EM structure
[1] = molecular target: beta-tubulin (bovine brain), subunit in the microtubule lattice (bovine)
[2] = molecular target: alpha-tubulin (bovine brain), subunit in the microtubule lattice (bovine)
[3] = molecular target: Microtubule lattice of bovine brain alpha/beta-tubulin heterodimers (bovine)
[4] = molecular target: Microtubule lattice of bovine brain alpha/beta-tubulin heterodimers (bovine); remark: listed apart in the source
[5] = molecular target: beta-tubulin (bovine brain), subunit in the microtubule lattice (bovine); remark: listed apart in the source
[6] = molecular target: alpha-tubulin (bovine brain), subunit in the microtubule lattice (bovine); remark: listed apart in the source

Measured: binding

B1: Doublecortin (DCX), human isoform 2, wild-type (protein, UniProt O43602-2 1-360)
chain: MELDFGHFDERDKTSRNMRGSRMNGLPSPTHSAHCSFYRTRTLQALSNEKKAKKVRFYRNGDRYFKGIVYAVSSDRFRSFDALLADLTRSLSDNINLPQGVRYIYTIDGSRKIGSMDELEEGESYVCSSDNFFKKVEYTKNVNPNWSVNVKTSANMKAPQSLASSNSAQARENKDFVRPKLVTIIRSGVKPRKAVRVLLNKKTAHSFEQVLTDITEAIKLETGVVKKLYTLDGKQVTCLHDFFGDDDVFIACGPEKFRYAQDDFSLDENECRVMKGNPSATAGPKASPTPQKTSAKSPGPMRRSKSPADSANGTSSSQLSTPKSKQSPISTPTSPGSLRKHKDLYLPLSLDDSDSLGDSM
binds: all assays above
